# Results taken from patent publication US20120303115A1 (priority 2011, published 2012).
# For at least one compound, name, drawing or mass did not settle the structure.
# What was measured:
# [1] = Drug concentration in liquid formulations by liquid chromatography; assay type: physicochemical; conditions: water, Vitamin E TPGS as excipient, ethanol less than two percent
# Procedure: Table 7, shown below, summarizes the concentrations of the excipient, the co-solvents and the drug for four different liquid formulations.
# Another liquid formulation of sirolimus comprises water and ethanol as co-solvents and Vitamin E TPGS as the excipient. The liquid formulation was created utilizing the following process. Two hundred milligrams of sirolimus and two grams of ethanol were added to a pre-weighed twenty milliliter scintillation vial. The vial was vortexed and sonicated until the sirolimus was completely dissolved. Approximately six hundred milligrams of Vitamin E TPGS was then added to the solution of ethanol and sirolimus. The vial was vortexed again until a clear yellowish solution was obtained. Nitrogen gas was then used to reduce the amount of ethanol in the vial to approximately two hundred twenty-nine milligrams. In a separate vial, three hundred milligrams of Vitamin E TPGS was dissolved in eleven milliliters of purified water while undergoing vortexing. The Vitamin E TPGS and water solution was then added to the first vial containing the sirolimus, Vitamin E TPGS and ethanol. The first vial was then vortexed vigorously and continuously for three minutes. […] The foam gradually disappeared after sitting at room temperature.
# An aqueous formulation of CCl-779, a sirolimus analog, is prepared utilizing ethanol, Vitamin E TPGS and water. […]
# [2] = system: monocyte chemotactic protein (MCP-1); assay: Cytokine levels in vascular tissue after delivery from a stent; assay type: in vivo; conditions: delivered from a stent
# [3] = Wet-adhesion (sirolimus loss) test simulating deployment of a drug coated balloon; assay type: physicochemical
# [4] = Sirolimus coating loss during dry state expansion of the balloon; assay type: physicochemical
compound,measurement,setting,value
"CO[C@H]1C[C@@H]2CC[C@@H](C)[C@@](O)(O2)C(=O)C(=O)N2CCCC[C@H]2C(=O)O[C@H]([C@H](C)C[C@@H]2CC[C@@H](O)[C@H](OC)C2)CC(=O)[C@H](C)/C=C(\C)[C@@H](O)[C@@H](OC)C(=O)[C@H](C)C[C@H](C)/C=C/C=C/C=C/1C [Rapamycin, rapamycin]",concentration in the final solution (HPLC assay),[1],15000 µg/mL
same,monocyte chemotactic protein (MCP-1) levels in the vascular wall,[2],highly effective in reducing
same,Sirolimus Loss in test (%),"[3]; balloon with hydrophilic treatment No, Acetone/ethanol/water, BHT/sirolimus 0%",49 ± 3%
same,Sirolimus Loss in test (%),"[3]; balloon with hydrophilic treatment No, Acetone/ethanol/water, BHT/sirolimus 1%",49 ± 4%
same,Sirolimus Loss in test (%),"[3]; balloon with hydrophilic treatment No, Acetone/ethanol/water, BHT/sirolimus 5%",33 ± 5%
same,Sirolimus Loss in test (%),"[3]; balloon with hydrophilic treatment Yes, Acetone/ethanol/water, BHT/sirolimus 0%",78 ± 5%
same,Sirolimus Loss in test (%),"[3]; balloon with hydrophilic treatment Yes, Acetone/ethanol/water, BHT/sirolimus 1%",76 ± 3%
same,Sirolimus Loss in test (%),"[3]; balloon with hydrophilic treatment Yes, Acetone/ethanol/water, BHT/sirolimus 5%",40 ± 13%
same,Sirolimus Loss in test (%),"[3]; balloon with hydrophilic treatment Yes, IPA/water, BHT/sirolimus 1%",21 ± 1%
same,Sirolimus Loss in test (%),"[3]; balloon with hydrophilic treatment Yes, IPA/water, BHT/sirolimus 5%",2 ± 5%
same,Sirolimus Loss in test (%),"[3]; balloon with hydrophilic treatment Yes, IPA/water, BHT/sirolimus no",22 ± 7%
same,coating loss during dry expansion (%),"[4]; hydrophilic coat No, Acetone/ethanol/water (50/40/10), BHT/sirolimus 5 %",40.3 ± 2.2%
same,coating loss during dry expansion (%),"[4]; hydrophilic coat No, IPA/Water (3.4/1), BHT/sirolimus 5 %",43.3 ± 5.1%
same,coating loss during dry expansion (%),"[4]; hydrophilic coat yes, IPA/Water (3.4/1), BHT/sirolimus 0 %",63.8 ± 7.2%
same,coating loss during dry expansion (%),"[4]; hydrophilic coat yes, IPA/Water (3.4/1), BHT/sirolimus 5 %",66.6 ± 10.8%
